# Source: patent US8536191B2 (priority 2010, dated 2013)
smiles,measurement,setting,value
Cl.Oc1ccc2c3c1O[C@H]1[C@@H](O)CC[C@@]4(O)[C@@H](C2)N(CC2CCC2)CC[C@]314 [Form A],form change when exposed to elevated relative humidity,50% RH or above,converts to Form C (monohydrate)
same,form obtained after dynamic vapor sorption and desorption,"sorption 5% to 95% RH, then desorption 95% to 5% RH, 25° C.",Form C
